PubChem BioAssay AID2685 (National Center for Advancing Translational Sciences (NCATS), 2010)
Some of the results follow. The main result of the screen is listed elsewhere. These columns were measured beside it and carry no call. Most of these compounds were active or inconclusive in the main read-out, so they are no random draw. Words in brackets tell the shape of the fitted curve; partial curves, single points and poor fits give uncertain potencies.

Test: qHTS Assay for Lipid Storage Modulators in Drosophila S3 Cells;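 on cell number change: cells counted by Cell Tracker Red CMTPX staining in the red channel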
Conditions: BODIPY lipid droplet fluorescence, 18-24 h; for cell number change: measured here: cell count max response, cells fed with added oleic acid
Outline: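 Laser-scanning cytometry quantifies lipid droplet accumulation (500–530 nm total intensity; droplet/cell object ratio) in oleic acid-fed (400 uM added) Drosophila S3 cells treated with a concentration series. 20 uM Triacsin C defined 100% inhibition.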

[1] = measured here: cell number channel AC50, cells fed with added oleic acid
[2] = measured here: lipid fluorescence (Fed channel) AC50, cells fed with added oleic acid

| Compound | cell number change | AC50 [1] | AC50 [2] |
| --- | --- | --- | --- |
| Cc1cccc(NC(=O)CNc2cc(C)ccc2C)c1 | -11.8% | – | – |
| CNC(=O)CSc1nnc(C2CC2)n1-c1ccccc1 | -4.52% | – | – |
| CCOc1ccc(S(=O)(=O)N(C)c2ccc(OCC(=O)NCc3ccco3)cc2)cc1 | 122% | 14.6 µM [rising, partial curve] | 20.6 µM [rising, partial curve] |
| Cc1ccc(CNC(=O)CSc2ncn[nH]2)cc1 | 28.7% | – | – |
| CC12COC3(C(=O)Nc4cccnc4)CC1CCC32C (stereo not drawn) | 2.05% | – | 0.00461 µM [falling, full curve, poor fit] |
| Cc1ccc2c(Cn3cc(C(F)(F)F)cc(Cl)c3=O)cc(=O)oc2c1 | -58.2% | – | 0.092 µM [falling, full curve, poor fit] |
| Cc1c(C)c2c(OCC(=O)N[C@@H](Cc3ccccc3)C(=O)O)cc3c(c2oc1=O)CCC(C)(C)O3 | 6.53% | – | 6.51 µM [rising, single point] |
| Cc1csc2ncc(C(=O)Nc3ccccc3F)c(=O)n12 | 14.3% | 1.3 µM [rising, partial curve] | 1.03 µM [rising, full curve] |
| CC(NC(=O)Cn1nc(-c2ccccc2)c2ccccc2c1=O)c1ccccc1 (stereo not drawn) | -68% | 20.6 µM [falling, partial curve] | 18.4 µM [falling, partial curve] |
| O=C1NC2(CCCc3ccccc32)C(=O)N1Cc1nnc(-c2ccccc2Br)o1 (stereo not drawn) | -24.7% | – | 9.2 µM [falling, partial curve] |
| NC(=O)C1CCN(S(=O)(=O)c2ccc3c(c2)OCCO3)CC1 | 11.3% | 0.731 µM [falling, single point] | – |
| COc1ccc(N2CCN(C(=O)CNC(=O)c3ccc(C(C)(C)C)cc3)CC2)cc1 | 65.8% | 16.4 µM [rising, single point] | – |
| Cc1c(C(=O)N2CCOCC2)sc(NC(=O)c2ccc3c(c2)OCO3)c1C#N | -4.96% | – | – |
| CC(NC(=O)C(C)N1CCN(Cc2ccccc2)CC1)c1ccccc1 (stereo not drawn) | – | – | 0.92 µM [falling, full curve, poor fit] |
| O=C(Nc1cccc(Cl)c1)Nc1nnc(CC2=CCCCC2)s1 | -11.8% | – | 16.4 µM [falling, partial curve] |
| Cc1cc2c3c([nH]c2cc1S(=O)(=O)NCc1ccc(CN2CCCCCC2)o1)CCCC3=O | -5.81% | – | – |
| CC(C)Cc1cc(C(=O)N2N=C(C(F)F)CC2(O)C(F)F)c2ccccc2n1 (stereo not drawn) | -21.2% | – | 18.4 µM [falling, single point] |
| N#CC1(NC(=O)COC(=O)c2cc([N+](=O)[O-])ccc2N2CCOCC2)CCCCC1 | 39.6% | 10.3 µM [rising, partial curve, poor fit] | – |

Quoted at random: 2 records from the list.

| Compound | cell number change | AC50 [1] | AC50 [2] |
| --- | --- | --- | --- |
| Cc1ccc2c(Cn3cc(C(F)(F)F)cc(Cl)c3=O)cc(=O)oc2c1 | -58.2% | – | 0.092 µM [falling, full curve, poor fit] |
| Cc1cccc(NC(=O)CNc2cc(C)ccc2C)c1 | -11.8% | – | – |
